These are yes or no findings as the source states them, for the method shown. In cells and extracts the contact can be indirect. These calls come from enrichment with a bait or labelling near it, and not all partners need be listed.
Target: Flag-tagged FBXW7 (F-box and WD repeat domain-containing 7) (UniProt Q969H0)
Assay: affinity purification with mass spectrometry; cell extracts from MHCC-97 cells with Flag-FBXW7 expression immunopurified on an anti-Flag affinity column, eluted with Flag peptides; eluates analysed by mass spectrometry

Amino acid sequences for entries named in this document (tags omitted).
UniProt Q969H0: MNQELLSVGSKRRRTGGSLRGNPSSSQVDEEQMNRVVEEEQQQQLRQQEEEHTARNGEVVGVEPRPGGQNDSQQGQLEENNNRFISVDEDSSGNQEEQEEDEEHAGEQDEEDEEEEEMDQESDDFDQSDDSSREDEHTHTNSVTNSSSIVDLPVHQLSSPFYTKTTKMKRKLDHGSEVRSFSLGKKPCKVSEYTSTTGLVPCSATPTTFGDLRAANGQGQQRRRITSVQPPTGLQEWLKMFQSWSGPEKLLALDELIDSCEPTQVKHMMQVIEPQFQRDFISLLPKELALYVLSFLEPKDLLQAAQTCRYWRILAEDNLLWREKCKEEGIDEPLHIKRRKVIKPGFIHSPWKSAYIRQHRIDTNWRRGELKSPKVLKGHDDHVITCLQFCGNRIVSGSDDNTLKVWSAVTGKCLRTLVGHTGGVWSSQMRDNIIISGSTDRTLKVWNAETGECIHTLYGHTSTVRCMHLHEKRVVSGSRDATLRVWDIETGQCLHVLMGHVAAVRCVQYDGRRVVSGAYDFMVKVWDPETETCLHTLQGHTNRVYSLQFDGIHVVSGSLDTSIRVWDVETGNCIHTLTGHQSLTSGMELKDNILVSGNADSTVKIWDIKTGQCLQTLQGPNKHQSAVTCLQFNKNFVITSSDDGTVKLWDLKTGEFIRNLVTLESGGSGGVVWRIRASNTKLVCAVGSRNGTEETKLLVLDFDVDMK
UniProt O96019: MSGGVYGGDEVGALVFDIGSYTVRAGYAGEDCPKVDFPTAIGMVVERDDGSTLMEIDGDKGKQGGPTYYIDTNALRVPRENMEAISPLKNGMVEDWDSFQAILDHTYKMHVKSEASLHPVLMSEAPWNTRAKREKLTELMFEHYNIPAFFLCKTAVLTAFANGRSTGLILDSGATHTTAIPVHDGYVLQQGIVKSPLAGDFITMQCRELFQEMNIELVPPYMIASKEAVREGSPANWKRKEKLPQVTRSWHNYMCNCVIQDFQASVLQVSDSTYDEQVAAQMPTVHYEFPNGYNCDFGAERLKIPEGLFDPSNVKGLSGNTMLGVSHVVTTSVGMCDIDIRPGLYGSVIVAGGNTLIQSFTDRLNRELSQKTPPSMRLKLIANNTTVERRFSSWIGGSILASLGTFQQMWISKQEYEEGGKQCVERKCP

For “Actin-like 6A (ACTL6A) (from UniProt O96019 1-429)”, the binding was “binds”.
